Measurements published in paper PMC5957441.
No constants are given. Whether binding was seen depends on the method and setting. In cells and extracts the contact can be indirect. Some entries that bind do so weakly or less than the wild type.

By UniProt entry, the sequences of proteins in these tests, tags left out. Residues count along the entry.
UniProt P08581, residues 25-1390: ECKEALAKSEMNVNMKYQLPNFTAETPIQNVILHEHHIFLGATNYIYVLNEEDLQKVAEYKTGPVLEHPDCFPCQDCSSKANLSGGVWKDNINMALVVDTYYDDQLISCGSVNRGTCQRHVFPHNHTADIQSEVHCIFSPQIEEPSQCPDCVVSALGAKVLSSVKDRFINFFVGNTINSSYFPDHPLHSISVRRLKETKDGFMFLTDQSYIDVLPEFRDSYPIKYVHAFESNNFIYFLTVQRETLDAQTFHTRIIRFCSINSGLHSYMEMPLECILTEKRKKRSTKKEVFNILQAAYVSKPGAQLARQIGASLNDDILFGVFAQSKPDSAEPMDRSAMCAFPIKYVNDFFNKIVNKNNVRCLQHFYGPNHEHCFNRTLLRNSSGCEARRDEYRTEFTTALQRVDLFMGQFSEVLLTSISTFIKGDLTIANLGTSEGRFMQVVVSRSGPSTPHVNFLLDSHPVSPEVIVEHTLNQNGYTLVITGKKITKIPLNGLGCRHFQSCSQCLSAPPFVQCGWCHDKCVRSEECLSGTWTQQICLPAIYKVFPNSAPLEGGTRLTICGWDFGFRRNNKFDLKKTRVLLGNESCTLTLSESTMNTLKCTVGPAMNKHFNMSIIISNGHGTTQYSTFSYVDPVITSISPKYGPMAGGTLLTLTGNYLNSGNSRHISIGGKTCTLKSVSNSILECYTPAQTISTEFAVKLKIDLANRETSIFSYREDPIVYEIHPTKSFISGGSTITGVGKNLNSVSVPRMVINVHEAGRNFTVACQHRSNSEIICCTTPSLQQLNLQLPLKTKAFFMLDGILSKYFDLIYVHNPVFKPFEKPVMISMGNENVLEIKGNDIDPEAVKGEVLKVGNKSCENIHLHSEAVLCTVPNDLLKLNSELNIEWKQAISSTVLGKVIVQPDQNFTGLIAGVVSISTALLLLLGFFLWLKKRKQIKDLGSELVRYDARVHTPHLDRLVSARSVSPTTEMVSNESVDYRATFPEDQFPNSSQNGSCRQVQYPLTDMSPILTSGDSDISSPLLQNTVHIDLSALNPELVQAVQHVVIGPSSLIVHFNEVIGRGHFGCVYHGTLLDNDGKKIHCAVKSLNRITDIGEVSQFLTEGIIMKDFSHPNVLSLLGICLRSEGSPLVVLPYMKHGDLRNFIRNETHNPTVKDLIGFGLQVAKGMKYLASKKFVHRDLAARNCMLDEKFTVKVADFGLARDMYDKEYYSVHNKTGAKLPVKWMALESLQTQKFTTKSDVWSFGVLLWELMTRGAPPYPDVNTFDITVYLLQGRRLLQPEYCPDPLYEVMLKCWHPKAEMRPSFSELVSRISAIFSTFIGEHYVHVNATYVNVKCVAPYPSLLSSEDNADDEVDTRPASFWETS
UniProt P40763: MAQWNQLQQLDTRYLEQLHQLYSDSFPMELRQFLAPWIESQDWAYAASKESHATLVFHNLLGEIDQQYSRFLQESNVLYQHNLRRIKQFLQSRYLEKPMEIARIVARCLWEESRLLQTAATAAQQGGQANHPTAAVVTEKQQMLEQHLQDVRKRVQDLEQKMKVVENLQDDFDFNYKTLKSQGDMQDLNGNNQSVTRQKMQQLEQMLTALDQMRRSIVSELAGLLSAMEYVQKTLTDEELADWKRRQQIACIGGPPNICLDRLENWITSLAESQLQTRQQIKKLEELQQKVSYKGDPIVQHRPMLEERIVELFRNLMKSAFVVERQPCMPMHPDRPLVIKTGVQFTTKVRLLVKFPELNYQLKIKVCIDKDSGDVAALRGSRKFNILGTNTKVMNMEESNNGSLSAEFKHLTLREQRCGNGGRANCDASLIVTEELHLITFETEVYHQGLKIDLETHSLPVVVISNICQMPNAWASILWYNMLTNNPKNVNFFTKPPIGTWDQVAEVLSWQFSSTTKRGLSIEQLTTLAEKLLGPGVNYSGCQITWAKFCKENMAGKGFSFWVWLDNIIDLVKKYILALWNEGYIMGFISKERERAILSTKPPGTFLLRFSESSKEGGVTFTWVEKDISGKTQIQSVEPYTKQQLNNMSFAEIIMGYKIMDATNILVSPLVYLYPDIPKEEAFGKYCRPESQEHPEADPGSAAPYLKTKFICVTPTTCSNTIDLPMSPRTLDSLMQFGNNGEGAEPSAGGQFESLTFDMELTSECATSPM

Target: hepatocyte growth factor receptor (HGFR/MET) (human (endogenous in A431 and in primary human airway basal cells)) (UniProt P08581)
Assay: co-IP; A431 cells, serum-starved overnight, treated with vehicle, 3 ng/ml or 50 ng/ml hHGF for 30 minutes; lysis in IP Cell Lysis Buffer; 2 mg protein per IP, anti-MET antibody overnight at 4°C, Protein A Dynabeads; western blot

binding: binds
Substance: STAT3 (from UniProt P40763 1-770)
